Some of the results follow.
Experiments:
Assay in all cases: glycan array binding signal (z-score within array); higher = stronger binding
Settings in all cases: glycan notation: IUPAC condensed, linker removed
[1] = target: Neu5Ac(a2-3)Gal(b1-4)GlcNAc(b1-3)[Neu5Ac(a2-3)Gal(b1-4)GlcNAc(b1-6)]GalNAc
In short: (§1)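 Glycan array data were curated from 3228 arrays in the Consortium for Functional Glycomics database and kept only where the protein sequence was available. Glycan names were converted to IUPAC-condensed notation, and columns mapping to the same glycan were averaged. The binding signal is a within-array Z-score, averaged across arrays of the same protein sequence at different concentrations or buffers and across linkers. Negative Z-scores can be read as non-binding.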

[2] = target: Neu5Ac(a2-3)Gal(b1-4)GlcNAc(b1-6)GalNAc
In short: as §1

[3] = target: Neu5Ac(a2-3)Gal(b1-4)GlcNAc(b1-6)[Gal(b1-3)]GalNAc
In short: as §1

[4] = target: Neu5Ac(a2-3)Gal(b1-4)GlcNAc(b1-6)[Neu5Ac(a2-3)Gal(b1-3)]GalNAc
In short: as §1

[5] = target: Neu5Ac(a2-3)Gal(b1-4)GlcNAc6S
In short: as §1

[6] = target: Neu5Ac(a2-3)Gal(b1-4)[Fuc(a1-3)]GlcNAc
In short: as §1

[7] = target: Neu5Ac(a2-3)Gal(b1-4)[Fuc(a1-3)]GlcNAc(b1-2)Man
In short: as §1

[8] = target: Neu5Ac(a2-3)Gal(b1-4)[Fuc(a1-3)]GlcNAc(b1-3)Gal
In short: as §1

[9] = target: Neu5Ac(a2-3)Gal(b1-4)[Fuc(a1-3)]GlcNAc(b1-3)Gal(b1-4)GlcNAc
In short: as §1

[10] = target: Neu5Ac(a2-3)Gal(b1-4)[Fuc(a1-3)]GlcNAc(b1-3)Gal(b1-4)[Fuc(a1-3)]GlcNAc(b1-3)Gal(b1-4)[Fuc(a1-3)]GlcNAc
In short: as §1

[11] = target: Neu5Ac(a2-3)Gal(b1-4)[Fuc(a1-3)]GlcNAc(b1-3)GalNAc
In short: as §1

[12] = target: Neu5Ac(a2-3)Gal(b1-4)[Fuc(a1-3)]GlcNAc(b1-6)[Gal(b1-3)]GalNAc
In short: as §1

[13] = target: Neu5Ac(a2-3)Gal(b1-4)[Fuc(a1-3)]GlcNAc(b1-6)[Neu5Ac(a2-3)Gal(b1-3)]GalNAc
In short: as §1

[14] = target: Neu5Ac(a2-3)Gal(b1-4)[Fuc(a1-3)]GlcNAc6S
In short: as §1

[15] = target: Neu5Ac(a2-3)Gal6S(b1-4)GlcNAc
In short: as §1

[16] = target: Neu5Ac(a2-3)Gal6S(b1-4)[Fuc(a1-3)]GlcNAc
In short: as §1

[17] = target: Neu5Ac(a2-3)GalNAc
In short: as §1

[18] = target: Neu5Ac(a2-3)GalNAc(b1-4)GlcNAc
In short: as §1

[19] = target: Neu5Ac(a2-3)[GalNAc(b1-4)]Gal(b1-4)Glc
In short: as §1

[20] = target: Neu5Ac(a2-3)[GalNAc(b1-4)]Gal(b1-4)GlcNAc
In short: as §1

[21] = target: Neu5Ac(a2-3)[GalNAc(b1-4)]Gal(b1-4)GlcNAc(b1-3)GalNAc
In short: as §1

[22] = target: Neu5Ac(a2-3)[Neu5Ac(a2-6)]GalNAc
In short: as §1

[23] = target: Neu5Ac(a2-6)Gal
In short: as §1

[24] = target: Neu5Ac(a2-6)Gal(b1-3)GlcNAc(b1-3)[Gal(b1-4)GlcNAc(b1-6)]Gal(b1-4)Glc
In short: as §1

[25] = target: Neu5Ac(a2-6)Gal(b1-4)Glc
In short: as §1

[26] = target: Neu5Ac(a2-6)Gal(b1-4)GlcNAc
In short: as §1

[27] = target: Neu5Ac(a2-6)Gal(b1-4)GlcNAc(b1-2)Man
In short: as §1

[28] = target: Neu5Ac(a2-6)Gal(b1-4)GlcNAc(b1-2)Man(a1-3)Man(b1-4)GlcNAc(b1-4)GlcNAc
In short: as §1

[29] = target: Neu5Ac(a2-6)Gal(b1-4)GlcNAc(b1-2)Man(a1-3)[Gal(b1-4)GlcNAc(b1-2)Man(a1-6)]Man(b1-4)GlcNAc(b1-4)GlcNAc
In short: as §1

[30] = target: Neu5Ac(a2-6)Gal(b1-4)GlcNAc(b1-2)Man(a1-3)[GlcNAc(b1-4)][Neu5Ac(a2-6)Gal(b1-4)GlcNAc(b1-2)Man(a1-6)]Man(b1-4)GlcNAc(b1-4)GlcNAc
In short: as §1

B1: CcfD (Bacteroides fragilis), Q5L9G4 (protein)
chain: MKKQNSIYTLLIALLCFVSSCDYLGVSDQLAGGLQNTEQVFDNVSYTKRWYANVFAGIPDYSGINSVNVGAFKNPWTGMCDELVVGYGNSSKYNNSDRNAANMGFHRYGDCYKYIRQANIFLQKAHPIMTTGTQGDQLLEDELTQMKANVRFMRAFYHYLLFEQYGPIILVKDKIYNATEDQDVPRNTVDEVIEYIDSELTAVASELTQEPIFEDKDYRAWPTKGVALAVRAKLWLYAASPLLNGGYREALSVTNPDGTRLFPDYDAGKWEKALAACKDFIDYAEAGRYELYKEYKDDNGAVIDPDKSVYNLFQKYTHEIIWATANNDWGGMNGDAFDRRIAPRCEKNGLGSTGVTQELVDAFYMKDGFPVSATAYLPQSTLYQEEGYGTYKDQNDNFSKKYTNVTVSNRYLNREPRFYNTVFFNGRQWPVSCNQVLFYNGGNSGVQEGQATLTGYMLFKRFNRSVSLTNPGVASQFRPSIIFRLADFYLMYAEAANEVNPNDARVLKYLNLVRERAGLPDIETLNPAIRGNQELQRAAIQRERQIELATEGQRYFDVRRWMIADKNGEGRQNGYVHGMNVRGESNDKEDFNRIVEASQIVFNRKMYLYPMPDSEMRKTKNLVQNPGW
[1]
  glycan array binding signal (z-score): 0.443
[2]
  glycan array binding signal (z-score): 0.154
[3]
  glycan array binding signal (z-score): 0.312
[4]
  glycan array binding signal (z-score): 0.22
[5]
  glycan array binding signal (z-score): -0.443
[6]
  glycan array binding signal (z-score): -0.522
[7]
  glycan array binding signal (z-score): -0.818
[8]
  glycan array binding signal (z-score): 0.036
[9]
  glycan array binding signal (z-score): -0.161
[10]
  glycan array binding signal (z-score): -1.11
[11]
  glycan array binding signal (z-score): 1.11
[12]
  glycan array binding signal (z-score): -0.614
[13]
  glycan array binding signal (z-score): 0.227
[14]
  glycan array binding signal (z-score): 0.489
[15]
  glycan array binding signal (z-score): -0.01
[16]
  glycan array binding signal (z-score): -1.03
[17]
  glycan array binding signal (z-score): -0.148
[18]
  glycan array binding signal (z-score): -0.739
[19]
  glycan array binding signal (z-score): 2.27
[20]
  glycan array binding signal (z-score): -0.988
[21]
  glycan array binding signal (z-score): 0.036
[22]
  glycan array binding signal (z-score): -0.653
[23]
  glycan array binding signal (z-score): 0.043
[24]
  glycan array binding signal (z-score): -0.555
[25]
  glycan array binding signal (z-score): -0.729
[26]
  glycan array binding signal (z-score): -0.942
[27]
  glycan array binding signal (z-score): -0.522
[28]
  glycan array binding signal (z-score): -0.016
[29]
  glycan array binding signal (z-score): -0.942
[30]
  glycan array binding signal (z-score): 0.128
